Test results taken from PMC9972942, “E6-Encoded by Cancer-Causing Human Papillomavirus Interacts with Aurora Kinase A To Promote HPV-Mediated Carcinogenesis” (Journal of Virology, 2023).
These are yes or no findings as the source states them, for the method shown. Binding seen in cells or lysates may run through a third protein. Some binding calls cover weakened binding; strength is not graded here.

Sequences of proteins named here, by UniProt entry; tags and fusion partners are left off.
UniProt P03126: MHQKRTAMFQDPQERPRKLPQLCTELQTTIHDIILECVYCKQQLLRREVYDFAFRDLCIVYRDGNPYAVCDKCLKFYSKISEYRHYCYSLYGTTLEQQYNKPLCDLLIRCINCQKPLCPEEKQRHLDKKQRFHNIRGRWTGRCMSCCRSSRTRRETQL
UniProt O14965: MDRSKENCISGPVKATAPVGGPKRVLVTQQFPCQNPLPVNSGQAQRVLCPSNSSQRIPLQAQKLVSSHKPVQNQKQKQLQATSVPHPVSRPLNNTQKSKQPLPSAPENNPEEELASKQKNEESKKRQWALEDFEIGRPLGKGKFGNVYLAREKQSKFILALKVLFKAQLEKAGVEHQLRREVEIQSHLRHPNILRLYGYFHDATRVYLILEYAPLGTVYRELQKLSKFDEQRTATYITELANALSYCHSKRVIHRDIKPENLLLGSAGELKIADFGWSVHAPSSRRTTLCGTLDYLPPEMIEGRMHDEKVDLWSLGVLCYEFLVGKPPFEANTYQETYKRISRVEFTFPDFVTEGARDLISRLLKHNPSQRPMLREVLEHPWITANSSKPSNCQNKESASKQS

Biological target: GST-tagged HPV16 E6 wild type (human papillomavirus type 16) (UniProt P03126)
Assay: pull-down; purified GST fusion proteins on glutathione-conjugated agarose incubated with equal amounts of in vitro-translated HA-AurA, 1 h at room temperature; washed 3 times with PBS containing 0.1% Tween 20; bound AurA detected by Western blotting with an HA-specific antibody; bands quantified with ImageJ relative to GST-16E6 (n = 3); only the target purified

Q: For “Aurora kinase A (HA-AurA, in vitro translated) (from UniProt O14965 1-403) (enzyme)”, which binding is on record?
A: Its binding is “binds”.
